Measured data: PubChem BioAssay AID1259308 (NCATS, 2017)
Screen: 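Genes whose loss raises luciferase production in HEK293 cells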 (primary screen). Cell system: human HEK293 embryonic kidney cells stably expressing firefly luciferase (HEK-CMV-Luc2-Hygro). Reagent: single siRNA against human genes, 0.8 pmol siRNA per well. Timing: 72 h. Read-out: 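Reporter luminescence and viable-cell signal on separate replicate plates, given as percent of non-targeting control and median/MAD z-scores, plus per-cell luciferase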. Direction: total luciferase, z-score: higher = more reporter protein produced. Rule for the call: 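Active when the median/MAD z-score for overall luciferase is greater than 3; a gene was taken forward for validation with new siRNAs if at least two of its three siRNAs passed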. Calls: active = raised luciferase; inactive = no rise.
Here is one part, drawn at random, of about 59,000 reagents. Of all reagents, about 1,510 (2.6%) got an active call. 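Calls use total luciferase alone and ignore viability, so some active siRNAs may act by altering cell number.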 Reagents against one gene are numbered here. Further read-outs or replicates are left out here.

Silencing of WDR76 (GeneID 79968) #1 resulted in: total luciferase, z-score 0.996; inactive.
For WDR76 (GeneID 79968) #2 the deposit lists total luciferase, z-score -0.428; inactive.
With knock-down of WDR76 (GeneID 79968) #3, the screen gave total luciferase, z-score 0.746; inactive.
For GRHL3 (GeneID 57822) #1, the values are total luciferase, z-score -1.24; inactive.
Depletion of GRHL3 (GeneID 57822) #2 gave: total luciferase, z-score -0.599; inactive.
Against GRHL3 (GeneID 57822) #3, the values are total luciferase, z-score 0.0262; inactive.
Knock-down of KMT2E (GeneID 55904) #1 came out at: total luciferase, z-score 1.55; inactive.
KMT2E (GeneID 55904) #2 gave total luciferase, z-score 0.0146; inactive.
With knock-down of KMT2E (GeneID 55904) #3, the record shows total luciferase, z-score -0.221; inactive.
For FAM230B (GeneID 642633) #1, the values are total luciferase, z-score -2.11; inactive.
FAM230B (GeneID 642633) #2 scored total luciferase, z-score 0.517; inactive.
After knock-down of FAM230B (GeneID 642633) #3, the record shows total luciferase, z-score 2.81; inactive.
Against GTF2IP3 (GeneID 645686) #1 the deposit lists total luciferase, z-score 0.908; inactive.
Against GTF2IP3 (GeneID 645686) #2, the entry reads total luciferase, z-score 0.555; inactive.
Silencing of GTF2IP3 (GeneID 645686) #3 gave: total luciferase, z-score -1.68; inactive.
RAP2C (GeneID 57826) #1 showed total luciferase, z-score 1.72; inactive.
RAP2C (GeneID 57826) #2 gave total luciferase, z-score 0.383; inactive.
Against RAP2C (GeneID 57826) #3, the values are total luciferase, z-score -0.477; inactive.
After knock-down of DMBX1 (GeneID 127343) #1 the results were total luciferase, z-score -0.238; inactive.
After knock-down of DMBX1 (GeneID 127343) #2 the results were total luciferase, z-score 0.337; inactive.
For DMBX1 (GeneID 127343) #3, the values are total luciferase, z-score -0.1; inactive.
With knock-down of MYRFL (GeneID 196446) #1, the screen gave total luciferase, z-score -2.8; inactive.
MYRFL (GeneID 196446) #2 scored total luciferase, z-score 1.14; inactive.
With knock-down of MYRFL (GeneID 196446) #3 the results were total luciferase, z-score -1.11; inactive.
Knock-down of SFTPC (GeneID 6440) #1 resulted in: total luciferase, z-score -0.745; inactive.
Against SFTPC (GeneID 6440) #2, the entry reads total luciferase, z-score 1.2; inactive.
For SFTPC (GeneID 6440) #3 the deposit lists total luciferase, z-score -0.612; inactive.
Depletion of COX6A2 (GeneID 1339) #1 gave: total luciferase, z-score -1.33; inactive.
COX6A2 (GeneID 1339) #2 showed total luciferase, z-score -0.432; inactive.
Silencing of COX6A2 (GeneID 1339) #3 came out at: total luciferase, z-score -0.474; inactive.
Knock-down of LOC728587 (GeneID 728587) #1 came out at: total luciferase, z-score -0.491; inactive.
Depletion of LOC728587 (GeneID 728587) #2 came out at: total luciferase, z-score 1.17; inactive.
For LOC728587 (GeneID 728587) #3, the values are total luciferase, z-score -0.882; inactive.
For NSUN7 (GeneID 79730) #1, the values are total luciferase, z-score -0.24; inactive.
NSUN7 (GeneID 79730) #2 scored total luciferase, z-score 0.401; inactive.
For NSUN7 (GeneID 79730) #3, the values are total luciferase, z-score -0.0276; inactive.
Against NOCT (GeneID 25819) #1, the values are total luciferase, z-score 2.64; inactive.
Depletion of NOCT (GeneID 25819) #2 came out at: total luciferase, z-score -1.5; inactive.
NOCT (GeneID 25819) #3 gave total luciferase, z-score 0.365; inactive.
Depletion of DOK5 (GeneID 55816) #1 resulted in: total luciferase, z-score 0.27; inactive.
After knock-down of DOK5 (GeneID 55816) #2 the results were total luciferase, z-score 1.87; inactive.
With knock-down of DOK5 (GeneID 55816) #3 the results were total luciferase, z-score -0.772; inactive.
